# According to the supplement of paper PMC12823440, “Inhibitors supercharge kinase turnover through native proteolytic circuits” (Nature, 2025):
# Protein sequences, listed by entry. Tags and fused reporters are not part of them. Lines headed by an entry give the natural chain unless they say otherwise; changes in a name come on top.
# UniProt P07949, whole entry, looked up: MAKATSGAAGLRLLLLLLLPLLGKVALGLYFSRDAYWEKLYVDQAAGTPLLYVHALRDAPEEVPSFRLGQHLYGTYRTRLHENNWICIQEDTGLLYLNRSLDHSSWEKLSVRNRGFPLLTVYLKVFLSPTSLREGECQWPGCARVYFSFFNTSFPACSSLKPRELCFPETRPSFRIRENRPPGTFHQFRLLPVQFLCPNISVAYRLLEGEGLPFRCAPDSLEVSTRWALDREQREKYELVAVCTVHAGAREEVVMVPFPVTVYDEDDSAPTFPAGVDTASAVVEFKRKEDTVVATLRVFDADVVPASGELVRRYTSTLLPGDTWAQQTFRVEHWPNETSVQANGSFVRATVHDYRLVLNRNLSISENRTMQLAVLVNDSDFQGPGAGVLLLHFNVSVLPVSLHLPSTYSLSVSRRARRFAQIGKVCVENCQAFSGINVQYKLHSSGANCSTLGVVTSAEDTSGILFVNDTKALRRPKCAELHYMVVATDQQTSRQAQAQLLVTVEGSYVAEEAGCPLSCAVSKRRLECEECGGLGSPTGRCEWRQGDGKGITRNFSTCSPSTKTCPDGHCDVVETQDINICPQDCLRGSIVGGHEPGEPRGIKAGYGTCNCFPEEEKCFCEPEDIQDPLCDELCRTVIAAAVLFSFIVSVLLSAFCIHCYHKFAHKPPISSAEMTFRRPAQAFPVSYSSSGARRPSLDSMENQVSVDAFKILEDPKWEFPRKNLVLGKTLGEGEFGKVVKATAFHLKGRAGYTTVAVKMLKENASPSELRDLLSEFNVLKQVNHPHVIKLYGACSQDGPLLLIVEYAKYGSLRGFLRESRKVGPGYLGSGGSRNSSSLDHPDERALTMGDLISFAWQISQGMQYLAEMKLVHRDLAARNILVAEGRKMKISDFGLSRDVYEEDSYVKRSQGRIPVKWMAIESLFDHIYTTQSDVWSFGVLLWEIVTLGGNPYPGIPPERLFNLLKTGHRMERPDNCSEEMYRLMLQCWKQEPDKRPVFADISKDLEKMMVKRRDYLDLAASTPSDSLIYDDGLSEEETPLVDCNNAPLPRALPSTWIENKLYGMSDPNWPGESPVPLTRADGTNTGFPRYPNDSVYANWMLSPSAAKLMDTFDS
# UniProt P07949, whole entry M918T, looked up: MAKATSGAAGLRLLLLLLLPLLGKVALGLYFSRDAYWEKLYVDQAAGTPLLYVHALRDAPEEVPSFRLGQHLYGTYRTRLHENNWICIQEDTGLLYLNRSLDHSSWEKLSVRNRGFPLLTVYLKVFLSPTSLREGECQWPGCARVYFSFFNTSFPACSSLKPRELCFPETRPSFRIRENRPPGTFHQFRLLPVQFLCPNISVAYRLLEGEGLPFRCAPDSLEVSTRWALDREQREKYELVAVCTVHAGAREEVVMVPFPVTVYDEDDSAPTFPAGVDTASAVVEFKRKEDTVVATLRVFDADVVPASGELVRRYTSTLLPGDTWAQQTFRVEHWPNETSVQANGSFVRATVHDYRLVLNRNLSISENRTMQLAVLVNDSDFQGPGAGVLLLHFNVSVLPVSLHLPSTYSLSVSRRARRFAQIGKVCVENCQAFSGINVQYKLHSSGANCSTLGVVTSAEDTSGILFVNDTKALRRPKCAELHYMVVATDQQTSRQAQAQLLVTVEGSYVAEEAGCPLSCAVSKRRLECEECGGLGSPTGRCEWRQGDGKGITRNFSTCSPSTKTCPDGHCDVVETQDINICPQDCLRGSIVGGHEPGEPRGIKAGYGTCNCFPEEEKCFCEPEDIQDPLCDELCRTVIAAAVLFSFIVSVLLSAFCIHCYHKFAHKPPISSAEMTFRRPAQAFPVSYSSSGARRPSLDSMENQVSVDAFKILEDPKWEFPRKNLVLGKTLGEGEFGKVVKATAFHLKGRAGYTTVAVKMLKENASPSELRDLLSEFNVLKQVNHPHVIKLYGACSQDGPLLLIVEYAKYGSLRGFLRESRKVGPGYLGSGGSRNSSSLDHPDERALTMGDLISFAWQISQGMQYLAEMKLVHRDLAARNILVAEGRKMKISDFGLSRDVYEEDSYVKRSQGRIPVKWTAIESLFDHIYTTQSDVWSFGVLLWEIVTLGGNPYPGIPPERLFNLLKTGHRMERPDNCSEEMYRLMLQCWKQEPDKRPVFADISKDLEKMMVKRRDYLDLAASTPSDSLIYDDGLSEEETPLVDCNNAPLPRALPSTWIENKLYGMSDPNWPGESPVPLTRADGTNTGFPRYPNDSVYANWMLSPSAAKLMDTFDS
# UniProt Q9BRS2: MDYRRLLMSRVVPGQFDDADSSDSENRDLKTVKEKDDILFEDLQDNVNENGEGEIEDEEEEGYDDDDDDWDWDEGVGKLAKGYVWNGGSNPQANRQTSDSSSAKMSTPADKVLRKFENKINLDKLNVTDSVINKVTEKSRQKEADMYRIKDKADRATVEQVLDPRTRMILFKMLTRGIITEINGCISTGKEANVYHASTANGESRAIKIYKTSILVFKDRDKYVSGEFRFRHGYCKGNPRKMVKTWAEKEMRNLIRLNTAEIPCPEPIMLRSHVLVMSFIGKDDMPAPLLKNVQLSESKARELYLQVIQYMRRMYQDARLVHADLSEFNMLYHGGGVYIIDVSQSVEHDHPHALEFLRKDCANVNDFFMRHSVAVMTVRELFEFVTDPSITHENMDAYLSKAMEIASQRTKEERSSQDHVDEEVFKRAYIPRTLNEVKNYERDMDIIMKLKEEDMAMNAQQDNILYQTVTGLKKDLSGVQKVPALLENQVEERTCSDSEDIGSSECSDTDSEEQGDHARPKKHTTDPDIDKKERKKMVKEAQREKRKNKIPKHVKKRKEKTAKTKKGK
# UniProt Q13546: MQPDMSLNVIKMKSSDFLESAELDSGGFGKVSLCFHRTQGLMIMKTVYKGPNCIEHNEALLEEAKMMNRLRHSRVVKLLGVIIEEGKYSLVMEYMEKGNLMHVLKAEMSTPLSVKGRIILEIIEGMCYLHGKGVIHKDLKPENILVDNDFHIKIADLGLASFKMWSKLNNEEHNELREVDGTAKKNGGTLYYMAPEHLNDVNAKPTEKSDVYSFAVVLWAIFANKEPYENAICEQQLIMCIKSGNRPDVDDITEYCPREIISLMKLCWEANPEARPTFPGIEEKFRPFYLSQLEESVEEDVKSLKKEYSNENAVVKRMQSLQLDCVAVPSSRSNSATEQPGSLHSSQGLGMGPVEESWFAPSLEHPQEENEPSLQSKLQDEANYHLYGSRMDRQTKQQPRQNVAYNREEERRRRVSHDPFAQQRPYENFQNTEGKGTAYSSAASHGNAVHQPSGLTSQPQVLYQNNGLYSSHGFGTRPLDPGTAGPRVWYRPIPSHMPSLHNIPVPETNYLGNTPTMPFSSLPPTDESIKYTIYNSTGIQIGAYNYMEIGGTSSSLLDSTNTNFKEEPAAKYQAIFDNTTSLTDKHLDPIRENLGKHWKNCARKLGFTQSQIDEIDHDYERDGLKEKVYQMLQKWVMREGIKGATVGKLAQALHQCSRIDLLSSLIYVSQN
# UniProt Q01974, whole entry: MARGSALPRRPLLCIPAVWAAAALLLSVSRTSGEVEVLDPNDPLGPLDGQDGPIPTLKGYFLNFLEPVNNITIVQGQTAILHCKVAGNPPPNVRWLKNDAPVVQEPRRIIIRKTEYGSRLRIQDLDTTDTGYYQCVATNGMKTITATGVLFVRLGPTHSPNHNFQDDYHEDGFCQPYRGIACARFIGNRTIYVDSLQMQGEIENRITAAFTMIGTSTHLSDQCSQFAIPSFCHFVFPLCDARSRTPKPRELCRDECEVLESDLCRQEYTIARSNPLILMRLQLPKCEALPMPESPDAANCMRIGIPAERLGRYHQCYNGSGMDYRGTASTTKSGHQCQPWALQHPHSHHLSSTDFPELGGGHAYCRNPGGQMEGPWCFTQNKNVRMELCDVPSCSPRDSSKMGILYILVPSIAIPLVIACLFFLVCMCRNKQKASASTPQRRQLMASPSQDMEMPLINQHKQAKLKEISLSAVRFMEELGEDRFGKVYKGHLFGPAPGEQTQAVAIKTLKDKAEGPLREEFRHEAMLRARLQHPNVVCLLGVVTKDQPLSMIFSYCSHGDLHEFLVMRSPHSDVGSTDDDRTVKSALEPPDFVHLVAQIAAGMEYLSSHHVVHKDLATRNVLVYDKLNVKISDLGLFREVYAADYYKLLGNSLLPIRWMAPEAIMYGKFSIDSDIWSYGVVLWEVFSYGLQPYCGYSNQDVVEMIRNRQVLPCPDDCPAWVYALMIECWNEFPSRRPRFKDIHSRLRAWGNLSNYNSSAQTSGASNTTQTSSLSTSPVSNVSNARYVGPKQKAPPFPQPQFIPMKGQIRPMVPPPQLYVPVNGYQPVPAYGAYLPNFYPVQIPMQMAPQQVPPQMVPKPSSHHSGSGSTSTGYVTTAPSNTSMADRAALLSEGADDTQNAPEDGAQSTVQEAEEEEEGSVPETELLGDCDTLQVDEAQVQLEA
# UniProt Q15418, whole entry: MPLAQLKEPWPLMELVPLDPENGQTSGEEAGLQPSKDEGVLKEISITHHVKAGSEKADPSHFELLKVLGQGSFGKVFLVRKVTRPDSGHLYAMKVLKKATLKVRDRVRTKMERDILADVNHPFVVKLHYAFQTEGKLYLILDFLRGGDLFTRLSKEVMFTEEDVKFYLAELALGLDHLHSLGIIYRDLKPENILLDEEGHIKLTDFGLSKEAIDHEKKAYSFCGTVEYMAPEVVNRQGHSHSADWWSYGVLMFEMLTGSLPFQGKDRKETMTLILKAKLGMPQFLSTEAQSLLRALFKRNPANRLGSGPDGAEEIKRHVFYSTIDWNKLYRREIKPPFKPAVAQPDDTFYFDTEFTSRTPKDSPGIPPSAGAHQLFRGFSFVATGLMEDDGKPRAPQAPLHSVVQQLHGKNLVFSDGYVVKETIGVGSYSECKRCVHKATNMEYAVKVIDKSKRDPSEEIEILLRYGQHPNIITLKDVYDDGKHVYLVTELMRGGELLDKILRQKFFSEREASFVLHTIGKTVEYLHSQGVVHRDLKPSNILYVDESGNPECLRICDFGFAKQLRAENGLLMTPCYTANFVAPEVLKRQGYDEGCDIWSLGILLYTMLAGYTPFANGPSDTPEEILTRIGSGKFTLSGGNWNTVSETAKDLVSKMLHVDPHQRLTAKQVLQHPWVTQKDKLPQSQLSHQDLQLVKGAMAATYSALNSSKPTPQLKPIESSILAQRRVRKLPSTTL
# UniProt Q9NYA1, whole entry: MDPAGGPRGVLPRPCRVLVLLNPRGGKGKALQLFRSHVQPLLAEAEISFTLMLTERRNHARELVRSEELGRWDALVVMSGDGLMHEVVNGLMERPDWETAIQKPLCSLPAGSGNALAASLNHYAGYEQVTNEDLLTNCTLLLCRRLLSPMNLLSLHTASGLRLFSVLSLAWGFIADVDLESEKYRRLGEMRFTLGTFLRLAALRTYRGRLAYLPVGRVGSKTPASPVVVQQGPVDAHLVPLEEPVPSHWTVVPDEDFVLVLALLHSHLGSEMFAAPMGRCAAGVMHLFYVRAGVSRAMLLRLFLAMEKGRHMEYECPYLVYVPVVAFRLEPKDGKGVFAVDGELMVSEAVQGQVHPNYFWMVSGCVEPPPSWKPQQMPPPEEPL
# UniProt Q9Y6E0: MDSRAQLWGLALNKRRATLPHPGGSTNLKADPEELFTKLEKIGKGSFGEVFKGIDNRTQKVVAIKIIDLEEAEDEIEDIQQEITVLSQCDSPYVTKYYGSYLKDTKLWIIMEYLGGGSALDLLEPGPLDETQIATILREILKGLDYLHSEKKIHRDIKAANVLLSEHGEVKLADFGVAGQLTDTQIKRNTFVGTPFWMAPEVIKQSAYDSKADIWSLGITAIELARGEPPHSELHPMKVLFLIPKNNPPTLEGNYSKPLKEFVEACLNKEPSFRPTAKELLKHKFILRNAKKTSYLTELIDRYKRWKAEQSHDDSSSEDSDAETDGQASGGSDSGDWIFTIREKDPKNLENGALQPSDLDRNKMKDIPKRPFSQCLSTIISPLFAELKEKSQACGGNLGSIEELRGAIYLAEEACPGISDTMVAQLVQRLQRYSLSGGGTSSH
# Where a name gives a salt, the structure may show the parent alone. The list shows a part of the results. Hit calls seldom repeat between salt and free forms of one compound.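 Kinases were expressed as nanoluciferase fusions in K562 cells and luminescence was read every 4 h between 2 and 18 h as percent of control, DMSO set to 100% and a positive control to 0%. A time point counts as decreased when the signal drops significantly (2 sigma). The hit call is the authors' own, does not follow from the count of time points alone, and its rule is not shown.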
# How the values were obtained:
# Assay in all cases: kinase-Nluc reporter destabilization hit call (1 = scored as downregulated) (binary); higher = compound decreases kinase abundance
# Conditions in all cases: K562; 2-18 h
# [1] = molecular target: RET (UniProt P07949)
# [2] = molecular target: RET_M918T (clone: RET_mut) (UniProt P07949)
# [3] = molecular target: RIOK1 (UniProt Q9BRS2)
# [4] = molecular target: RIPK1 (UniProt Q13546)
# [5] = molecular target: RIPK2 (UniProt O43353)
# [6] = molecular target: ROR2 (UniProt Q01974)
# [7] = molecular target: RPS6KA1 (UniProt Q15418)
# [8] = molecular target: SPHK1 (UniProt Q9NYA1)
# [9] = molecular target: SRC (UniProt P12931)
# [10] = molecular target: STK24 (UniProt Q9Y6E0)
SMILES,kinase-Nluc reporter destabilization hit call [1],kinase-Nluc reporter destabilization hit call [2],kinase-Nluc reporter destabilization hit call [3],kinase-Nluc reporter destabilization hit call [4],kinase-Nluc reporter destabilization hit call [5],kinase-Nluc reporter destabilization hit call [6],kinase-Nluc reporter destabilization hit call [7],kinase-Nluc reporter destabilization hit call [8],kinase-Nluc reporter destabilization hit call [9],kinase-Nluc reporter destabilization hit call [10]
O=C1c2ccccc2-c2n[nH]c3cccc1c23 (10 µM),inactive: 0,inactive: 0,inactive: 0,inactive: 0,inactive: 0,inactive: 0,inactive: 0,inactive: 0,inactive: 0,inactive: 0
Cc1ccc2c(Nc3ccc(Cl)cc3)nccc2c1Nc1ncccc1-c1ncnc2nc[nH]c12 [Raf inhibitor 1] (2.5 µM),inactive: 0,inactive: 0,inactive: 0,inactive: 0,inactive: 0,inactive: 0,inactive: 0,inactive: 0,inactive: 0,inactive: 0
CN1CCN(S(=O)(=O)c2ccc(-c3cnc(N)c(C(=O)Nc4cccnc4)n3)cc2)CC1 (10 µM),inactive: 0,inactive: 0,inactive: 0,inactive: 0,inactive: 0,inactive: 0,inactive: 0,inactive: 0,inactive: 0,inactive: 0
O=C1Nc2ccccc2/C1=C/c1ccc(F)cc1 (10 µM),inactive: 0,inactive: 0,inactive: 0,inactive: 0,inactive: 0,inactive: 0,inactive: 0,inactive: 0,inactive: 0,inactive: 0
CCOc1cc2ncc(C#N)c(Nc3ccc(OCc4ccccn4)c(Cl)c3)c2cc1NC(=O)/C=C/CN(C)C [Neratinib] (10 µM),inactive: 0,inactive: 0,inactive: 0,inactive: 0,inactive: 0,inactive: 0,inactive: 0,inactive: 0,inactive: 0,inactive: 0
CN(C)C[C@@H]1CCn2cc(c3ccccc32)C2=C(C(=O)NC2=O)c2cn(c3ccccc23)CCO1 [Ruboxistaurin (hydrochloride)] (10 µM),inactive: 0,inactive: 0,inactive: 0,inactive: 0,inactive: 0,inactive: 0,inactive: 0,inactive: 0,inactive: 0,inactive: 0
COc1cc(C(=O)NC2CCN(C)CC2)ccc1Nc1ncc2c(n1)N(C1CCCC1)CC(F)(F)C(=O)N2C (10 µM),inactive: 0,inactive: 0,inactive: 0,inactive: 0,inactive: 0,inactive: 0,inactive: 0,inactive: 0,inactive: 0,inactive: 0
Cc1ccc(S(=O)(=O)Nc2nc3ccccc3nc2Nc2ccc3nsnc3c2)cc1 [Pilaralisib analogue] (10 µM),inactive: 0,inactive: 0,inactive: 0,inactive: 0,inactive: 0,inactive: 0,inactive: 0,inactive: 0,inactive: 0,
Cc1c[nH]c2ccccc12 [Skatole] (10 µM),inactive: 0,inactive: 0,inactive: 0,inactive: 0,inactive: 0,inactive: 0,inactive: 0,inactive: 0,inactive: 0,inactive: 0
Cc1ccc2c(Nc3cccc(OC(F)(F)F)c3)nccc2c1Nc1ncccc1-c1ncnc2[nH]cnc12 (10 µM),inactive: 0,inactive: 0,inactive: 0,inactive: 0,inactive: 0,inactive: 0,inactive: 0,inactive: 0,inactive: 0,inactive: 0
Cc1[nH]c(/C=C2\C(=O)Nc3ccc(S(=O)(=O)Cc4c(Cl)cccc4Cl)cc32)c(C)c1C(=O)N1CCC[C@@H]1CN1CCCC1 (2.5 µM),inactive: 0,inactive: 0,inactive: 0,inactive: 0,inactive: 0,inactive: 0,inactive: 0,inactive: 0,inactive: 0,inactive: 0
CCCCOc1c(C(=O)c2c(F)cc(C)cc2F)c[nH]c2nncc1-2 (10 µM),inactive: 0,inactive: 0,inactive: 0,inactive: 0,inactive: 0,inactive: 0,inactive: 0,inactive: 0,inactive: 0,inactive: 0
CN1CCN(C(=O)c2ccc(-c3ccc4c(C=O)c(O)ccc4c3)s2)CC1 (2.5 µM),inactive: 0,inactive: 0,inactive: 0,inactive: 0,inactive: 0,inactive: 0,inactive: 0,inactive: 0,inactive: 0,inactive: 0
Oc1ccc(-c2nc(-c3ccc(F)cc3)c(-c3ccncc3)[nH]2)cc1 (2.5 µM),inactive: 0,inactive: 0,inactive: 0,inactive: 0,inactive: 0,inactive: 0,inactive: 0,inactive: 0,inactive: 0,inactive: 0
COCCNCCc1cccc(Nc2ncc3c(n2)-c2ccccc2[C@H](c2ccccc2F)C3)c1 [Derazantinib] (2.5 µM),inactive: 0,inactive: 0,inactive: 0,inactive: 0,inactive: 0,inactive: 0,inactive: 0,inactive: 0,inactive: 0,inactive: 0
COc1cc(F)cc([C@@H](CO)NC(=O)[C@@H](C)N2Cc3ccc(-c4nc(NC5CCOCC5)ncc4Cl)cc3C2=O)c1 [ERK1/2 inhibitor 2] (10 µM),inactive: 0,inactive: 0,inactive: 0,inactive: 0,inactive: 0,inactive: 0,inactive: 0,inactive: 0,inactive: 0,inactive: 0
c1cc(OCCN2CCCCC2)cc(-c2n[nH]c3ccc(-c4nnc[nH]4)cc23)c1 [CC-401 (hydrochloride)] (10 µM),inactive: 0,inactive: 0,inactive: 0,inactive: 0,inactive: 0,inactive: 0,inactive: 0,inactive: 0,inactive: 0,inactive: 0
COc1cc2ncn(-c3cc(OCc4ccccc4C(F)(F)F)c(C(N)=O)s3)c2cc1OC (10 µM),inactive: 0,inactive: 0,inactive: 0,inactive: 0,inactive: 0,inactive: 0,inactive: 0,inactive: 0,inactive: 0,inactive: 0
COc1cc(N2CCC(N)CC2)ccc1Nc1ncc(Cl)c(-c2c[nH]c3ccccc23)n1 (2.5 µM),inactive: 0,inactive: 0,inactive: 0,inactive: 0,inactive: 0,inactive: 0,inactive: 0,inactive: 0,inactive: 0,inactive: 0
CC[C@H](CO)Nc1nc(NCc2ccccc2)c2ncn(C(C)C)c2n1 [Seliciclib] (10 µM),inactive: 0,inactive: 0,inactive: 0,inactive: 0,inactive: 0,inactive: 0,inactive: 0,inactive: 0,inactive: 0,inactive: 0
N#C/C(=C\c1ccc(O)c(O)c1)C(=O)NCCCc1ccccc1 (10 µM),inactive: 0,inactive: 0,inactive: 0,inactive: 0,inactive: 0,inactive: 0,inactive: 0,inactive: 0,inactive: 0,inactive: 0
NC(=O)c1ccc2nc(-c3ccc(Oc4ccc(Cl)cc4)cc3)[nH]c2c1 (10 µM),inactive: 0,inactive: 0,inactive: 0,inactive: 0,inactive: 0,inactive: 0,inactive: 0,inactive: 0,inactive: 0,inactive: 0
Oc1cc(O)cc(/C=C/c2ccc(O)c(O)c2)c1 [Piceatannol] (10 µM),inactive: 0,inactive: 0,inactive: 0,inactive: 0,active: 1,inactive: 0,inactive: 0,inactive: 0,inactive: 0,inactive: 0
O=C(O)CCNC(=O)c1ccc(/N=N/c2ccc(O)c(C(=O)O)c2)cc1 [Balsalazide] (10 µM),inactive: 0,inactive: 0,inactive: 0,inactive: 0,inactive: 0,inactive: 0,inactive: 0,inactive: 0,inactive: 0,inactive: 0
O=c1oc2ccccc2c(O)c1Cc1c(O)c2ccccc2oc1=O [Dicoumarol] (10 µM),inactive: 0,inactive: 0,inactive: 0,inactive: 0,inactive: 0,inactive: 0,inactive: 0,inactive: 0,inactive: 0,inactive: 0
CN1CCN(C2CCN(C(=O)Nc3cc(Oc4ccc(NC(=O)C5(C(=O)Nc6ccc(F)cc6)CC5)c(F)c4)ccn3)CC2)CC1 [Golvatinib] (2.5 µM),inactive: 0,inactive: 0,inactive: 0,inactive: 0,inactive: 0,inactive: 0,inactive: 0,inactive: 0,inactive: 0,inactive: 0
Cc1nc(-c2cnc(NC(C)C)n(C)c2=O)ccc1Oc1ccnc(-c2cnn(C)c2)c1 (2.5 µM),inactive: 0,inactive: 0,inactive: 0,inactive: 0,inactive: 0,inactive: 0,inactive: 0,inactive: 0,inactive: 0,inactive: 0
COc1cc(CCc2cc(-c3nc4ccc(N5CCN(C)CC5)cc4[nH]3)n[nH]2)cc(OC)c1 (10 µM),inactive: 0,inactive: 0,inactive: 0,inactive: 0,inactive: 0,inactive: 0,inactive: 0,inactive: 0,inactive: 0,inactive: 0
Cn1c(=O)n(-c2ccc(C(C)(C)C#N)cc2)c2c3cc(-c4cnc5ccccc5c4)ccc3ncc21 [Dactolisib (Tosylate)] (10 µM),inactive: 0,active: 1,inactive: 0,inactive: 0,inactive: 0,inactive: 0,inactive: 0,inactive: 0,inactive: 0,inactive: 0
CCCS(=O)(=O)Nc1ccc(F)c(C(=O)c2c[nH]c3ncc(Cl)cc23)c1F (10 µM),inactive: 0,inactive: 0,inactive: 0,inactive: 0,inactive: 0,inactive: 0,inactive: 0,inactive: 0,inactive: 0,inactive: 0

# Two compounds from above, showing only kinase-Nluc reporter destabilization hit call [4] and kinase-Nluc reporter destabilization hit call [8].
SMILES	kinase-Nluc reporter destabilization hit call [4]	kinase-Nluc reporter destabilization hit call [8]
N#C/C(=C\c1ccc(O)c(O)c1)C(=O)NCCCc1ccccc1 (10 µM)	inactive: 0	inactive: 0
NC(=O)c1ccc2nc(-c3ccc(Oc4ccc(Cl)cc4)cc3)[nH]c2c1 (10 µM)	inactive: 0	inactive: 0
